Assay [1] has as its target ASH2L (endogenous, PATC53 cells) (human (endogenous in PATC53)) (UniProt Q9UBL3). Nature of the assay: co-IP.
For assay [2], the target named is DPY30 mutant L69D, overexpressed in KPC or PATC53 cells (human) (UniProt Q9C005). Nature of the assay: co-IP.
Assay [3] deals with RBBP5 (endogenous, PATC53 cells) (human (endogenous in PATC53)) (UniProt Q15291). The assay is described as follows: co-IP.
Assay [4] has as its target DPY30 (endogenous, human PDAC cells) (human (endogenous in PATC53 and PATC66)) (UniProt Q9C005). Nature of the assay: proximity ligation.

Protein sequences, listed by entry. Tags and fused reporters are not part of them. Lines headed by an entry give the natural chain unless they say otherwise; changes in a name come on top.
UniProt Q9UBL3: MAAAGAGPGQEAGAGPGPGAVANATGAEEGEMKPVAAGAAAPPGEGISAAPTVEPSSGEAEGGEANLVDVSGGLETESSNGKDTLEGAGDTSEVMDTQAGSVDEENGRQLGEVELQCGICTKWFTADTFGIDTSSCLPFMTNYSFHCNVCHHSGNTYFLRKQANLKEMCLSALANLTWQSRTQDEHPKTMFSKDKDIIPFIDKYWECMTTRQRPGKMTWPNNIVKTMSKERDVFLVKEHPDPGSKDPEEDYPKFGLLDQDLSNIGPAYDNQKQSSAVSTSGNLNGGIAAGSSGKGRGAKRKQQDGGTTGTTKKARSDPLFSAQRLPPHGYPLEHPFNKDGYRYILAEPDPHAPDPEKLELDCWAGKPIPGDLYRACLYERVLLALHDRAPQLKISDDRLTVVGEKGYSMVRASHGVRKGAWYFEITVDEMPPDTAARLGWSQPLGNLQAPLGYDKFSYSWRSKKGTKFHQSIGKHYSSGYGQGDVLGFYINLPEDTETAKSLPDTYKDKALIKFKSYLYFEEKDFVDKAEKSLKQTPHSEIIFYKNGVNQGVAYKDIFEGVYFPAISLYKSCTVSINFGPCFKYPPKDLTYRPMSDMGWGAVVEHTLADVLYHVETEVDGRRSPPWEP
UniProt Q9C005: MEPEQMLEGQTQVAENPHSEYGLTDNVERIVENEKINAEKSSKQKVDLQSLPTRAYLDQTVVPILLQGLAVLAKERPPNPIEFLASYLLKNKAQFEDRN
UniProt Q15291: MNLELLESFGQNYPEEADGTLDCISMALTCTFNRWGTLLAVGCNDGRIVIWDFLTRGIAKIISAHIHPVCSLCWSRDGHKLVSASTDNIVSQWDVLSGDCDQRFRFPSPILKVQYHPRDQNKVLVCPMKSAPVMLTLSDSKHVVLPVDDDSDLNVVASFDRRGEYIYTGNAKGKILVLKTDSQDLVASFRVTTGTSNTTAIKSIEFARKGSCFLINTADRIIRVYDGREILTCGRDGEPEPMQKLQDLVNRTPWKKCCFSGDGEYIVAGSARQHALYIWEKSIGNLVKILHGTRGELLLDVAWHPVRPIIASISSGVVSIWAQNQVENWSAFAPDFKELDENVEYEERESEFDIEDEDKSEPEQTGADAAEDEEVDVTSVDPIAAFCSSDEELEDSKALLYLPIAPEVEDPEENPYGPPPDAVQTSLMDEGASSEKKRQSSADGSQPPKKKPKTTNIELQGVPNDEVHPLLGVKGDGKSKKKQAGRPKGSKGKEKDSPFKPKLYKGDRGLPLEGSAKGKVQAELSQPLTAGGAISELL

No constants are given. Whether binding was seen depends on the method and setting. Binding seen in cells or lysates may run through a third protein. Some entries that bind do so weakly or less than the wild type.

B1: MCM6 (endogenous, human PDAC cells) (protein, UniProt Q14566 1-821)
chain: MDLAAAAEPGAGSQHLEVRDEVAEKCQKLFLDFLEEFQSSDGEIKYLQLAEELIRPERNTLVVSFVDLEQFNQQLSTTIQEEFYRVYPYLCRALKTFVKDRKEIPLAKDFYVAFQDLPTRHKIRELTSSRIGLLTRISGQVVRTHPVHPELVSGTFLCLDCQTVIRDVEQQFKYTQPNICRNPVCANRRRFLLDTNKSRFVDFQKVRIQETQAELPRGSIPRSLEVILRAEAVESAQAGDKCDFTGTLIVVPDVSKLSTPGARAETNSRVSGVDGYETEGIRGLRALGVRDLSYRLVFLACCVAPTNPRFGGKELRDEEQTAESIKNQMTVKEWEKVFEMSQDKNLYHNLCTSLFPTIHGNDEVKRGVLLMLFGGVPKTTGEGTSLRGDINVCIVGDPSTAKSQFLKHVEEFSPRAVYTSGKASSAAGLTAAVVRDEESHEFVIEAGALMLADNGVCCIDEFDKMDVRDQVAIHEAMEQQTISITKAGVKATLNARTSILAAANPISGHYDRSKSLKQNINLSAPIMSRFDLFFILVDECNEVTDYAIARRIVDLHSRIEESIDRVYSLDDIRRYLLFARQFKPKISKESEDFIVEQYKHLRQRDGSGVTKSSWRITVRQLESMIRLSEAMARMHCCDEVQPKHVKEAFRLLNKSIIRVETPDVNLDQEEEIQMEVDEGAGGINGHADSPAPVNGINGYNEDINQESAPKASLRLGFSEYCRISNLIVLHLRKVEEEEDESALKRSELVNWYLKEIESEIDSEEELINKKRIIEKVIHRLTHYDHVLIELTQAGLKGSTEGSESYEEDPYLVVNPNYLLED
Consider B1, for which the binding entry in assay [1] is recorded as “binds”; in assay [2], “no binding”; in assay [3] it was “binds”.

B2: WDHD1 (endogenous, human PDAC cells) (protein, UniProt O75717 1-1129)
chain: MPATRKPMRYGHTEGHTEVCFDDSGSFIVTCGSDGDVRIWEDLDDDDPKFINVGEKAYSCALKSGKLVTAVSNNTIQVHTFPEGVPDGILTRFTTNANHVVFNGDGTKIAAGSSDFLVKIVDVMDSSQQKTFRGHDAPVLSLSFDPKDIFLASASCDGSVRVWQISDQTCAISWPLLQKCNDVINAKSICRLAWQPKSGKLLAIPVEKSVKLYRRESWSHQFDLSDNFISQTLNIVTWSPCGQYLAAGSINGLIIVWNVETKDCMERVKHEKGYAICGLAWHPTCGRISYTDAEGNLGLLENVCDPSGKTSSSKVSSRVEKDYNDLFDGDDMSNAGDFLNDNAVEIPSFSKGIINDDEDDEDLMMASGRPRQRSHILEDDENSVDISMLKTGSSLLKEEEEDGQEGSIHNLPLVTSQRPFYDGPMPTPRQKPFQSGSTPLHLTHRFMVWNSIGIIRCYNDEQDNAIDVEFHDTSIHHATHLSNTLNYTIADLSHEAILLACESTDELASKLHCLHFSSWDSSKEWIIDLPQNEDIEAICLGQGWAAAATSALLLRLFTIGGVQKEVFSLAGPVVSMAGHGEQLFIVYHRGTGFDGDQCLGVQLLELGKKKKQILHGDPLPLTRKSYLAWIGFSAEGTPCYVDSEGIVRMLNRGLGNTWTPICNTREHCKGKSDHYWVVGIHENPQQLRCIPCKGSRFPPTLPRPAVAILSFKLPYCQIATEKGQMEEQFWRSVIFHNHLDYLAKNGYEYEESTKNQATKEQQELLMKMLALSCKLEREFRCVELADLMTQNAVNLAIKYASRSRKLILAQKLSELAVEKAAELTATQVEEEEEEEDFRKKLNAGYSNTATEWSQPRFRNQVEEDAEDSGEADDEEKPEIHKPGQNSFSKSTNSSDVSAKSGAVTFSSQGRVNPFKVSASSKEPAMSMNSARSTNILDNMGKSSKKSTALSRTTNNEKSPIIKPLIPKPKPKQASAASYFQKRNSQTNKTEEVKEENLKNVLSETPAICPPQNTENQRPKTGFQMWLEENRSNILSDNPDFSDEADIIKEGMIRFRVLSTEERKVWANKAKGETASEGTEAKKRKRVVDESDETENQEEKAKENLNLSKKQKPLDFSTNQKLSAFAFKQE
With B2, in assay [4], the binding entry is reported as “binds”.

B3: MCM6 (endogenous, mouse KPC cells) (protein, UniProt P97311 1-821)
chain: MDLAAAAEPGAGSQHPEVRDEVAEKCQKLFLDFLEEFQGSDGEIKYLQFAEELIRPERNTLVVSFADLEQFNQQLSTTIQEEFYRVYPYLCRALKTFVKDRKEIPFAKDFYVAFQDLPTRHKIRELTSSRIGLLTRISGQVVRTHPVHPELVSGTFLCLDCQTVIKDVEQQFKYTQPNICRNPVCANRKRFLLDTNKSRFVDFQKVRIQETQAELPRGSIPRSLEVILRAEAVESAQAGDRCDFTGALIVVPDVSKLSTPGARAETNSRVSGADGYETEGIRGLRALGVRDLSYRLVFLACHVAPTNPRFGGKELRDEEQTAESIKNQMTVKEWEKVFEMSQDKNLYHNLCTSLFPTIHGNDEVKRGVLLMLFGGVPKTTGEGTSLRGDINVCIVGDPSTAKSQFLKHVDEFSPRAVYTSGKASSAAGLTAAVVRDEESHEFVIEAGALMLADNGVCCIDEFDKMDMRDQVAIHEAMEQQTISITKAGVKATLNARTSILAAANPVSGHYDRSKSLKQNINLSAPIMSRFDLFFILVDECNEVTDYAIARRIVDLHSRIEESIDRVYSLDDIRRYLLFARQFKPKISKESEDFIVEQYKRLRQRDGSGVTKSSWRITVRQLESMIRLSESMARMHCCDEVQPKHVKEAFRLLNKSIIRVETPDVNLDQEEEIQMETDEGQGGVNGHADSPAPVNRFNGSSEDASQETVSKPSLRLGFAEYCRISNLIVLHLRKMEEEEDESALKRSELVNWYLKEIESEIDSEEELINKKTIIEKVVHRLTHYDHVLIELTQAGLKGSSEGSESYEEDPYLVVNPNYLLED
For B3, in assay [2], the binding result was “no binding”.

The record behind these values is paper doi:10.1101/2024.10.21.619543.
